The other results are listed elsewhere or left out.
Columns and labels:
Assay in all cases: log2 fold change, soluble protein after heating vs DMSO (PISA); higher = thermal stabilisation; K562 cells, 10 uM, 30 min; active = over 0.2 and 3.5 SD of the protein, either way, in both replicates (recomputed)
[1] = compound: NC(=O)Nc1cc(-c2cccc(F)c2)sc1C(=O)N[C@H]1CCCNC1
In short: (§1)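 For each measurement, 10 μM compound was applied for 30 min to K562 cells at 2×10^6 cells/mL. Aliquots were heated for 3 min across 48°C-58°C, pooled, and extracted in PBS with 0.5% NP-40 at 4°C; the supernatant after 21,000xg for 90 min was soluble protein. This was quantified by TMTpro 16plex LC-MS/MS with channel sums equalised, and thermal stability was reported relative to control samples from duplicates, on a log2 fold-change scale.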

By UniProt entry, the sequences of proteins in these tests, tags left out. Where a name states a change or a piece, a line headed by the entry shows the natural chain unless it says otherwise.
UniProt Q8N490: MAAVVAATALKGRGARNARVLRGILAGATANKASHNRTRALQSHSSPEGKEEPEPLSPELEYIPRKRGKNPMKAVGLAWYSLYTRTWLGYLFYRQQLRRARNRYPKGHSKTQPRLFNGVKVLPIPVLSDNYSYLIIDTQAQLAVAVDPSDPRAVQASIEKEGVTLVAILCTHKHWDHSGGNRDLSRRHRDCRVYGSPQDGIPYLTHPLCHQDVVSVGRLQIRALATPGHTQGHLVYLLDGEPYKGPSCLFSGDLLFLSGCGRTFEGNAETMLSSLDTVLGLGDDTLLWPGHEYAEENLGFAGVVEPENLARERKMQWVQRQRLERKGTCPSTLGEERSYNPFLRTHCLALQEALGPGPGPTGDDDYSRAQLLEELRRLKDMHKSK
UniProt Q9Y2S7: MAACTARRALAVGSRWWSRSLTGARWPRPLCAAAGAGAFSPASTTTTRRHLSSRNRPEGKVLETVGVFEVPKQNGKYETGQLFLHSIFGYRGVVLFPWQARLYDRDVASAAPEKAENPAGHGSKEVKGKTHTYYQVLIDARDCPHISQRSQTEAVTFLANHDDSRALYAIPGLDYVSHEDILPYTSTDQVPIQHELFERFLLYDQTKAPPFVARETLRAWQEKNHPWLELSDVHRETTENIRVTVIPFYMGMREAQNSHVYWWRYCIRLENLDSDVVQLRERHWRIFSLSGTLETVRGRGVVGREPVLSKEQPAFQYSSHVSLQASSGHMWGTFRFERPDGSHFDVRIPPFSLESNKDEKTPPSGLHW
UniProt O43660: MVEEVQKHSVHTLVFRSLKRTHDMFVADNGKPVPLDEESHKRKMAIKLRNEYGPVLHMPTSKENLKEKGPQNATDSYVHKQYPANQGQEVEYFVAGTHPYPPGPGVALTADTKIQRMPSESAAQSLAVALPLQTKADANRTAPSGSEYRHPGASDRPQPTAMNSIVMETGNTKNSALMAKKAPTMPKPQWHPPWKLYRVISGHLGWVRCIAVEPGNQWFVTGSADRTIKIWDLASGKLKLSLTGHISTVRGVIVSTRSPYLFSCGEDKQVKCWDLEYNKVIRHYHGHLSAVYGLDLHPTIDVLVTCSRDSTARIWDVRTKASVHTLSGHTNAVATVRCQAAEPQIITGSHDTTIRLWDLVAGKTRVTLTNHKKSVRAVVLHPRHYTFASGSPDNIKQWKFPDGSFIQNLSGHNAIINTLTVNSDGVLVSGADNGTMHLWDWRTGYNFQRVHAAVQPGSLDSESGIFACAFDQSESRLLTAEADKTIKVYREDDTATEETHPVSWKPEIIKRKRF
UniProt P62937, whole entry, looked up: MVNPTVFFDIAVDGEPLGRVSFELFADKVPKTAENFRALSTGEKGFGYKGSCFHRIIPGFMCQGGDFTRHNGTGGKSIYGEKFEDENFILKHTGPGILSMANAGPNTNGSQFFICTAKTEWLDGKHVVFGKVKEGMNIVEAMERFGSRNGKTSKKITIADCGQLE
UniProt P23284: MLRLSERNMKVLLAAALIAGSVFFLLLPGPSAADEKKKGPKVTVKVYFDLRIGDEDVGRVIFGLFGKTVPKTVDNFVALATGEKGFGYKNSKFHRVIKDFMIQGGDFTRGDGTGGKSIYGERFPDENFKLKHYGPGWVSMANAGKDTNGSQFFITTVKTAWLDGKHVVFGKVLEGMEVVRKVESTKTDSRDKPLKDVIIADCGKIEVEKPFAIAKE
UniProt Q9BX97: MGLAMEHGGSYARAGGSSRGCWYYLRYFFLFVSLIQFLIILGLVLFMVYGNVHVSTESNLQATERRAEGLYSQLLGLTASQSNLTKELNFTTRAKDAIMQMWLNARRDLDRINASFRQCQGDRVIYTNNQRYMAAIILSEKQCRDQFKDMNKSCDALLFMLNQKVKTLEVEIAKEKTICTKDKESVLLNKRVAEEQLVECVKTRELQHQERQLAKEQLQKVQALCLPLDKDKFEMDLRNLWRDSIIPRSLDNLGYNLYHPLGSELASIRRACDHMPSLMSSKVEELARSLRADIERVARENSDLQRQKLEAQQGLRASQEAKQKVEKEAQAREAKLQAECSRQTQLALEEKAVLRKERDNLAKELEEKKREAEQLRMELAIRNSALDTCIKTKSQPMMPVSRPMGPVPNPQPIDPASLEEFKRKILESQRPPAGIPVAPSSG
UniProt Q9NVS9: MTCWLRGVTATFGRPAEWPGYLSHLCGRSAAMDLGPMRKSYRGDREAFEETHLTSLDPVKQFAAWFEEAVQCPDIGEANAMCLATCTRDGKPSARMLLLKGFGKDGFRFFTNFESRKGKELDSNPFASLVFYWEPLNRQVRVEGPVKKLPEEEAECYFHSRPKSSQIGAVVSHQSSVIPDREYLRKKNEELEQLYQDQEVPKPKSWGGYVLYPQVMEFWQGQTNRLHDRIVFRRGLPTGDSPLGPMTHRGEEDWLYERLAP
UniProt P30405: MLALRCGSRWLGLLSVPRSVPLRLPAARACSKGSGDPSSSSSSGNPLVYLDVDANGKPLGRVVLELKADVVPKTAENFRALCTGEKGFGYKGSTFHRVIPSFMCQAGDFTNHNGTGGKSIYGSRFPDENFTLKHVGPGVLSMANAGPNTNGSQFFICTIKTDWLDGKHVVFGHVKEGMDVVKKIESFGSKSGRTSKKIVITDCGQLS
UniProt Q13794: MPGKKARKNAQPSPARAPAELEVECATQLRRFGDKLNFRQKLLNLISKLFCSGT
UniProt P14859: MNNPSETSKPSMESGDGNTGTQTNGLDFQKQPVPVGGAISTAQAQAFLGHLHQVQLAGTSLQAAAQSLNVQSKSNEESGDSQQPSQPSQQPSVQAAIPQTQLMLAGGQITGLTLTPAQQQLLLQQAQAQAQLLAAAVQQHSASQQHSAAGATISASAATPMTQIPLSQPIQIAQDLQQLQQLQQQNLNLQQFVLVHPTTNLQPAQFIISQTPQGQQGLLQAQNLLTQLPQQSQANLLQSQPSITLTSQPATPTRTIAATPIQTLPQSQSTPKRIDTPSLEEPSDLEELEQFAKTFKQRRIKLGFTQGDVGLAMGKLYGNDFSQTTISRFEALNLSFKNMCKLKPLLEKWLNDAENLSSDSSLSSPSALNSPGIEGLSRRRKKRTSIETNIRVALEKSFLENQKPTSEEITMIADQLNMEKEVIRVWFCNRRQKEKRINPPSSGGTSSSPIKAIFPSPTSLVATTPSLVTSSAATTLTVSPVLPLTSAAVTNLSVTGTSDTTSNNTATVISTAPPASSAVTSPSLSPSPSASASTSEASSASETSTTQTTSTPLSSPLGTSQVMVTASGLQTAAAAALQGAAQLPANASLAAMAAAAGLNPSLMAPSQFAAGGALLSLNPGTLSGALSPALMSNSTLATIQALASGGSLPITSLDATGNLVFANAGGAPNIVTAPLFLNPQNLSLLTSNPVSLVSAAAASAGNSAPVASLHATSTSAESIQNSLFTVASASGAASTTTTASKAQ
UniProt Q9NR33: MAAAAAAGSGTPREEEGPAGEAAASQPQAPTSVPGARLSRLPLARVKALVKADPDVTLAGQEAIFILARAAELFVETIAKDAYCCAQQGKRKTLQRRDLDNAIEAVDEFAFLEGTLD
UniProt Q969H6: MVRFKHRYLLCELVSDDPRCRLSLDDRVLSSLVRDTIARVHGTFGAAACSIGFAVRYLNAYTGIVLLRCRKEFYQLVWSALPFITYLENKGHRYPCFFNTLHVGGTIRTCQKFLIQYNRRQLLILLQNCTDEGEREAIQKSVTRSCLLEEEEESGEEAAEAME
UniProt O75688: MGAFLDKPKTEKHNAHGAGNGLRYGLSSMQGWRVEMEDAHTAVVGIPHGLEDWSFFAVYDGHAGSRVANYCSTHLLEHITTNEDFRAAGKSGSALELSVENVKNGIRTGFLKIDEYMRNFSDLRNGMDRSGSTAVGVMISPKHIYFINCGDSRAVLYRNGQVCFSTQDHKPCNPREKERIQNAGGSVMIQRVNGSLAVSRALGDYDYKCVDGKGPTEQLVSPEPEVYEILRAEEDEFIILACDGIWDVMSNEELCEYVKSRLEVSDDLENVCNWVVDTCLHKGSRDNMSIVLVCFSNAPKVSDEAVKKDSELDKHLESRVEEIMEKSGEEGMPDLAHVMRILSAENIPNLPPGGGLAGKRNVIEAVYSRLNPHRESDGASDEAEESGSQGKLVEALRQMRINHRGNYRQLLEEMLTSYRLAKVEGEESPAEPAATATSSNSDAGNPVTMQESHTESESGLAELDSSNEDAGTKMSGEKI
UniProt O60568: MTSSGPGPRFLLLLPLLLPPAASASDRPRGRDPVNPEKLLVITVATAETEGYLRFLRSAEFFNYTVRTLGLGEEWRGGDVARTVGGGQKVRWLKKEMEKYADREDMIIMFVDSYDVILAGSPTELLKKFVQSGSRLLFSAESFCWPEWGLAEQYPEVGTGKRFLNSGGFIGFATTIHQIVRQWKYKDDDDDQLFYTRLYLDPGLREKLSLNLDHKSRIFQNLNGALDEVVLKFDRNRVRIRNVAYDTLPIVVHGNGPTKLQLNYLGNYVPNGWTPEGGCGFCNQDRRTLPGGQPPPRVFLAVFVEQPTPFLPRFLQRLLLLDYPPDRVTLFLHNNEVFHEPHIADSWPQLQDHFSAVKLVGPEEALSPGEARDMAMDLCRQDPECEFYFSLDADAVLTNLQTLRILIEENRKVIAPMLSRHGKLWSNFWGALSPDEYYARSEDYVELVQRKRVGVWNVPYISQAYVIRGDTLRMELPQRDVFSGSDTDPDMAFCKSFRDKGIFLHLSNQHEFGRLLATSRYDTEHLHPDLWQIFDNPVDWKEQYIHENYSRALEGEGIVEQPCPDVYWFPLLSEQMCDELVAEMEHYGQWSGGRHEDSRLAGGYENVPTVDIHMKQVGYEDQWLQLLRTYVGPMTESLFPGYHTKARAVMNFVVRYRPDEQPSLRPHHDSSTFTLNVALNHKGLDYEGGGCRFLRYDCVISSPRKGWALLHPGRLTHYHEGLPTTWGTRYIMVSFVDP
UniProt Q9UNP9: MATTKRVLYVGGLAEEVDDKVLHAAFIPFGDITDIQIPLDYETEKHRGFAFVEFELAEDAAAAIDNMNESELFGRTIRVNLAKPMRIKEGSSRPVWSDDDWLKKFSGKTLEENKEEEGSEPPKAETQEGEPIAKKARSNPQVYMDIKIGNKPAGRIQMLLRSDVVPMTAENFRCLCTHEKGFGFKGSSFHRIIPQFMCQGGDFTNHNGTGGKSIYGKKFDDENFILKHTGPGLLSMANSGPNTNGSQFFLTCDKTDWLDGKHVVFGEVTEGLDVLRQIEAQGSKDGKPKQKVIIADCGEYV
UniProt Q96CD2: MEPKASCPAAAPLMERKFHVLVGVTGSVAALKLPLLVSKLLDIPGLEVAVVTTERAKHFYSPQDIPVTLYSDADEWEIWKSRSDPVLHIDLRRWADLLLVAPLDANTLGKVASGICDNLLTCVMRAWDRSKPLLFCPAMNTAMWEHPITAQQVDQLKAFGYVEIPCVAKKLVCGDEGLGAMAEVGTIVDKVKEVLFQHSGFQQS
UniProt Q15165: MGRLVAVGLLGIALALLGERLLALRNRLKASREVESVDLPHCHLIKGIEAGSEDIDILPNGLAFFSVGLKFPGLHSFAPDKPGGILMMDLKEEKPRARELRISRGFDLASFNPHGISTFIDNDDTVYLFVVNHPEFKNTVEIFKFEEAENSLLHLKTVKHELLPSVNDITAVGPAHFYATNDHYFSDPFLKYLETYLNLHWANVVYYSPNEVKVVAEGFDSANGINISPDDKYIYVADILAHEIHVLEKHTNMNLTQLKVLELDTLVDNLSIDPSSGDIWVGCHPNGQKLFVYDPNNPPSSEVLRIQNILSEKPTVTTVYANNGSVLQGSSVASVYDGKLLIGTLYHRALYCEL
UniProt O75817: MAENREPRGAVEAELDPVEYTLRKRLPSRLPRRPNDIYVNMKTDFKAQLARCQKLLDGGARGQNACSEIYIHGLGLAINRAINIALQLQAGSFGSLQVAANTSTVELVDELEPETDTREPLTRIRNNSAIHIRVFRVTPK
UniProt Q02809: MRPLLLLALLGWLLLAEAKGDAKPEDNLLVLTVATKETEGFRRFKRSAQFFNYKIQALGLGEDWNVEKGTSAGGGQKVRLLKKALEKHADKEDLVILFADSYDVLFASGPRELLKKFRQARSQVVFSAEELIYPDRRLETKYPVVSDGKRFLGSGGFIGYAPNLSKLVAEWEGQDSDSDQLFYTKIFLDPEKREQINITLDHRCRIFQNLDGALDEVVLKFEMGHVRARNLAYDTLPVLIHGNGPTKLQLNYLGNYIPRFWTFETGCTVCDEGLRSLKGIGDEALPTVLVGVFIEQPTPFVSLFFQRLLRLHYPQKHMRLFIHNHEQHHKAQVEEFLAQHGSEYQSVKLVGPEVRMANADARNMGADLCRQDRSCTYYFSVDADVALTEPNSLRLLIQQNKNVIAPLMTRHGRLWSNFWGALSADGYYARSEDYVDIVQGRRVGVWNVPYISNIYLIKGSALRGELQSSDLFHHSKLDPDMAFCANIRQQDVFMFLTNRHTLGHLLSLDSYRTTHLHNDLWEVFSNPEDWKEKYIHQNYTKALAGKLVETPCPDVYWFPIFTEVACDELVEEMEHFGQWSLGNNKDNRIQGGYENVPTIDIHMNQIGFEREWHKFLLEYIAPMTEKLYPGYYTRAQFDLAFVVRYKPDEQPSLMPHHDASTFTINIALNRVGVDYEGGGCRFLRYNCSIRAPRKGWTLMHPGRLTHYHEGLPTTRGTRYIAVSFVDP

[2] = compound: NC(=O)c1cnc(N[C@@H]2CCCC[C@@H]2N)nc1Nc1cccc(-n2nccn2)c1
In short: as §1

[3] = compound: NC1(c2ccc(-c3nc4ccn5c(=O)[nH]nc5c4cc3-c3ccccc3)cc2)CCC1
In short: as §1

[4] = compound: NCC(=O)Nc1ccc(-n2nc(C(F)(F)F)cc2-c2ccc3c(ccc4ccccc43)c2)cc1
In short: as §1

[5] = compound: Nc1ccccc1NC(=O)c1ccc(CNC(=O)OCc2cccnc2)cc1 [entinostat]
In short: as §1

[6] = compound: O=C(CCCCCCC(=O)Nc1ccccc1)NO [vorinostat]
In short: as §1

[7] = compound: O=C(CCCCCCNC(=O)c1cnc(N(c2ccccc2)c2ccccc2Cl)nc1)NO [citarinostat]
In short: as §1

[8] = compound: O=C(O)c1ccc2c(c1)nc(Nc1cccc(Cl)c1)c1ccncc12 [silmitasertib]
In short: as §1

[9] = compound: O=C1NC(=O)C(c2cnc3ccccn23)=C1c1cn2c3c(cc(F)cc13)CN(C(=O)N1CCCCC1)CC2
In short: as §1

[10] = compound: c1cc(OCCN2CCCCC2)cc(-c2n[nH]c3ccc(-c4nnc[nH]4)cc23)c1
In short: as §1

[11] = compound: c1cn2cc(-c3ccc4cn[nH]c4c3)nc(Nc3ccc(N4CCOCC4)cc3)c2n1 [entospletinib]
In short: as §1

Measured: log2 fold change

PPA1 (UniProt Q15181)
inactive: [1] -0.043 | [2] -0.014 | [3] -0.005 | [4] -0.026 | [5] 0.018 | [6] -0.016 | [7] -0.009 | [8] -0.067 | [9] -0.078 | [10] -0.032 | [11] 0.055

PNKD isoform 3 (UniProt Q8N490)
inactive: [1] 0.015 | [2] -0.032 | [3] -0.015 | [4] -0.013 | [5] -0.043 | [6] -0.026 | [7] 0.055 | [8] 0.002 | [9] -0.017 | [10] -0.023 | [11] 0.077

POLDIP2 (UniProt Q9Y2S7)
inactive: [1] -0.024 | [2] -0.074 | [3] -0.125 | [4] -0.058 | [5] -0.005 | [6] 0.008 | [7] 0.046 | [8] 0.016 | [9] -0.112 | [10] -0.032 | [11] -0.011

2 records drawn at random from those above, as already listed:
POLDIP2 (UniProt Q9Y2S7)
inactive: [1] -0.024 | [2] -0.074 | [3] -0.125 | [4] -0.058 | [5] -0.005 | [6] 0.008 | [7] 0.046 | [8] 0.016 | [9] -0.112 | [10] -0.032 | [11] -0.011

PNKD isoform 3 (UniProt Q8N490)
inactive: [1] 0.015 | [2] -0.032 | [3] -0.015 | [4] -0.013 | [5] -0.043 | [6] -0.026 | [7] 0.055 | [8] 0.002 | [9] -0.017 | [10] -0.023 | [11] 0.077

Remaining list, next part:

PLRG1 (UniProt O43660)
inactive: [1] 0.042 | [2] -0.016 | [3] -0.003 | [4] -0.007 | [5] -0.008 | [6] -0.039 | [7] -0.022 | [8] 0.028 | [9] 0.112 | [10] -0.094 | [11] 0.037

PPIA (UniProt P62937)
inactive: [1] -0.023 | [2] -0.02 | [3] -0.037 | [4] -0.044 | [5] 0.011 | [6] -0.026 | [7] 0.058 | [8] -0.04 | [9] -0.039 | [10] 0.033 | [11] 0.02

POGLUT2 (UniProt Q6UW63)
inactive: [1] 0.013 | [2] -0.004 | [3] -0.024 | [4] -0.021 | [5] -0.022 | [6] -0.022 | [7] -0.002 | [8] -0.013 | [9] 0.062 | [10] -0.037 | [11] -0.015

PPAT (UniProt Q06203)
inactive: [1] 0.007 | [2] 0.004 | [3] -0.016 | [4] 0.015 | [5] -0.038 | [6] -0.037 | [7] 0.027 | [8] -0.045 | [9] -0.031 | [10] -0.026 | [11] -0.021

PPIB (UniProt P23284)
inactive: [1] -0.018 | [2] -0.016 | [3] -0.01 | [4] 0 | [5] -0.017 | [6] -0.016 | [7] -0.001 | [8] 0.011 | [9] 0.009 | [10] -0.055 | [11] -0.005

POLD2 (UniProt P49005)
inactive: [1] 0.134 | [2] -0.068 | [3] -0.105 | [4] -0.036 | [5] 0.054 | [6] -0.092 | [7] 0.048 | [8] 0.022 | [9] -0.068 | [10] 0.031 | [11] -0.01

PLVAP (UniProt Q9BX97)
inactive: [1] 0 | [2] 0.111 | [3] -0.142 | [4] -0.022 | [5] -0.068 | [6] 0.13 | [7] 0.032 | [8] 0.145 | [9] 0 | [10] 0.101 | [11] 0.086

PNPO (UniProt Q9NVS9)
inactive: [1] -0.018 | [2] -0.048 | [3] 0.021 | [4] 0.06 | [5] -0.013 | [6] -0.022 | [7] 0.024 | [8] -0.071 | [9] -0.094 | [10] -0.034 | [11] -0.016

POLG2 (UniProt Q9UHN1)
inactive: [1] -0.019 | [2] 0.013 | [3] -0.017 | [4] 0.034 | [5] -0.024 | [6] 0.063 | [7] 0.027 | [8] 0.01 | [9] 0.025 | [10] -0.064 | [11] 0

PPIF (UniProt P30405)
inactive: [1] -0.023 | [2] -0.02 | [3] 0.012 | [4] -0.048 | [5] -0.004 | [6] 0.009 | [7] 0.032 | [8] -0.033 | [9] -0.173 | [10] -0.009 | [11] 0.035

PMAIP1 (UniProt Q13794)
inactive: [1] -0.295 | [2] -0.461 | [3] -0.094 | [4] -0.2 | [5] 0.102 | [6] -0.021 | [7] -0.044 | [8] -0.044 | [9] -0.388 | [10] -0.257 | [11] -0.24

POU2F1 isoform 6 (UniProt P14859)
inactive: [1] -0.019 | [2] -0.147 | [3] -0.167 | [4] -0.072 | [5] 0.14 | [6] 0.087 | [7] 0.199 | [8] -0.009 | [9] 0 | [10] 0.031 | [11] 0.002

POLE4 (UniProt Q9NR33)
inactive: [1] 0.045 | [2] -0.052 | [3] -0.006 | [4] -0.025 | [5] 0.13 | [6] 0 | [7] 0.085 | [8] -0.005 | [9] -0.115 | [10] 0.008 | [11] 0.074

POP5 (UniProt Q969H6)
inactive: [1] 0.061 | [2] 0.072 | [3] 0.003 | [4] 0.072 | [5] -0.033 | [6] 0.011 | [7] 0.021 | [8] 0.022 | [9] 0.011 | [10] -0.139 | [11] 0.048

PPM1B (UniProt O75688)
inactive: [1] -0.031 | [2] 0.018 | [3] -0.13 | [4] -0.052 | [5] -0.004 | [6] -0.01 | [7] -0.013 | [8] -0.026 | [9] -0.047 | [10] -0.033 | [11] 0.025

PLOD3 (UniProt O60568)
inactive: [1] -0.047 | [2] -0.044 | [3] -0.008 | [4] 0.014 | [5] -0.024 | [6] -0.021 | [7] 0.006 | [8] 0.025 | [9] 0.024 | [10] -0.057 | [11] -0.013

PPIE (UniProt Q9UNP9)
inactive: [1] -0.136 | [2] -0.025 | [3] -0.026 | [4] -0.01 | [5] -0.032 | [6] -0.023 | [7] 0.11 | [8] 0.076 | [9] -0.038 | [10] 0.011 | [11] -0.034

PPCDC (UniProt Q96CD2)
inactive: [1] 0.068 | [2] 0.005 | [3] -0.173 | [4] -0.009 | [5] -0.011 | [6] 0.036 | [7] 0.059 | [8] 0.016 | [9] 0.005 | [10] -0.038 | [11] -0.094

PON2 (UniProt Q15165)
inactive: [1] 0.03 | [2] -0.043 | [3] -0.084 | [4] 0.04 | [5] 0.004 | [6] -0.056 | [7] 0.078 | [8] 0.06 | [9] -0.111 | [10] -0.036 | [11] 0.027

POP7 (UniProt O75817)
inactive: [1] -0.029 | [2] 0.056 | [3] 0.05 | [4] 0.004 | [5] 0.023 | [6] -0.048 | [7] 0.03 | [8] 0.009 | [9] -0.054 | [10] -0.073 | [11] 0.126

PLOD1 isoform 2 (UniProt Q02809)
inactive: [1] -0.004 | [2] 0.006 | [3] -0.018 | [4] 0.058 | [5] 0.003 | [6] -0.03 | [7] -0.008 | [8] 0.059 | [9] 0.047 | [10] -0.104 | [11] 0.041

PLEKHF2 (UniProt Q9H8W4)
inactive: [1] -0.019 | [2] -0.04 | [3] -0.241 | [4] -0.119 | [5] 0.032 | [6] 0.04 | [7] 0.124 | [8] -0.024 | [9] -0.047 | [10] -0.092 | [11] -0.016

— the supplement of paper PMC10849652
